# Experimental data published in US20110202328A1, “System for the determination of selective absorbent molecules through predictive correlations” (ExxonMobil Research and Engineering Company, priority 2009, published 2011).
# Assay: Experimental H2S selectivity of the new dataset of 22 compounds
# Details: at the loading printed per compound in column 'Loadings in %'
row,Molecule,Experimental Selectivity values
1,CC(C)(C)NCCCP(=O)(O)O [Compound 9],0.4
2,CC(C)(C)NCCO [Compound 17],26.7
3,CC(C)(C)NCCCS(=O)(=O)O [Compound 7],1.2
4,CC(C)(C)NCCOCCOCCO [Compound 21],75.4
5,CC(C)(C)NCC(O)CO (stereo not drawn) [Compound 19],78.9
6,CC(C)(C)N(CCO)CCO [Compound 18],49.8
7,N—Et4^+ OH^− [Compound 14],70.7
8,CC(C)(C)NCOCCOCCO [Compound 20],56.01
9,N—Me4^+ OH^− [Compound 13],107.5
10,CC(C)(C)NCOCCOCCOCCO [Compound 22],64.4
11,CC(C)(C)NCCP(=O)(O)O [Compound 8],0.6
12,CC(C)(C)NCCNC(C)(C)C [Compound 3],26.2
13,CC(C)(C)NCCCS(=O)(=O)[O-].[Na+] [Compound 6],20.4
14,CC(C)(C)NCCCP(=O)([O-])[O+]=[K] [Compound 10],84.5
15,CC(C)(C)NCCOCCO [Compound 1],15.4
16,N—Bu4^+ OH^- [Compound 16],35.9
17,CC(C)(C)NCS(=O)(=O)[O-].[Na+] [Compound 4],14.4
18,CC(C)(C)NCCCCP(=O)(O)O [Compound 11],0.8
19,CC(C)(C)NCCOCCNC(C)(C)C [Compound 2],16.7
20,CC(C)(C)NCCS(=O)(=O)[O-].[Na+] [Compound 5],34.9
21,N—Pr4^+ OH^− [Compound 15],78.7
